Test system: MDCK cells
Assay: Cell growth of treated MDCK cells, total protein (Specific Example 2)
Assay type: cell-based, canine
Method: Cell culture and lipid extraction. One half million of MDCK cells were seeded into 10 cm style dish containing 8 ml serum free DMEM supplemented medium. Shayman, J. A. et al., J. Biol. Chem., 265:12135-12138 (1990). After 24 h the medium was replaced with 8 ml of the medium containing 0, 11.8, 118 or 1180 nM D-t-P4, D-t-3′,4′-ethylenedioxy-P4 or D-4′-hydroxy)-P4. The GlcCer synthase inhibitors were added into the medium as a one to one complex with delipidated BSA. Abe, A. et al., J. Lipid. Res., 36:611-621 (1995); Abe, A. et al., Biochim. Biophys. Acta, 1299:331-341 (1996). The cells were incubated for 24 h or 48 h with the inhibitors. After the incubation, the cells were washed twice with 8 ml of cold PBS and fixed with 2 ml of cold methanol. The fixed cells were scraped and transferred to a glass tube. Another one ml of methanol was used to recover the remaining cells in the dish.
Effects of D-threo-P4, D-threo4′-hydroxy-P4 and D-threo-3,4′-ethylenedioxy-P4 on GlcCer Synthesis and Cell Growth. To confirm the cellular specificity of D-threo-3′,4′-ethylenedioxy-P4 and D-threo-(4′-hydroxy)-P4 as compared to D-threo-P4, MDCK cells were treated with different concentrations of the inhibitors. The total protein amount in each sample was determined by the BCA method. In GlcCer analysis, lipid samples and standard lipids were applied to the same HPTLC plate pre-treated with borate and developed in a solvent consisting of C/M/W (63/24/4). The level of GlcCer was estimated from a standard curve obtained using a computerized image scanner. The values were normalized on the basis of the phospholipid content. The results are shown in FIG. 7, wherein each bar is the average values from three dishes, with error bars corresponding to one standard deviation. In the control, the total protein and GlcCer were 414±47.4 μg/dish and 24.3±1.97 ng/nmol phosphate, respectively.

Compound: CCCCCCCCCCCCCCCC(=O)N[C@H](CN1CCCC1)[C@H](O)c1ccc(O)cc1 [D-threo-4′-hydroxy-P4, D-t-4′-hydroxy-1-phenyl-2-palmitoylamino-3-pyrrolidino-1-propanol]
- ratio of cell protein to cellular phospholipid phosphate (11.3 nM): 4.52±0.39 mg protein/nmol phosphate
- ratio of cell protein to cellular phospholipid phosphate (113 nM): 4.35±0.10 mg protein/nmol phosphate
- ratio of cell protein to cellular phospholipid phosphate (1130 nM): 3.68±0.99 mg protein/nmol phosphate

Compound: CCCCCCCCCCCCCCCC(=O)N[C@H](CN1CCCC1)[C@H](O)c1ccc2c(c1)OCCO2 [D-threo-3′,4′-ethylenedioxy-P4, D-t-3′,4′-ethylenedioxy-1-phenyl-2-palmitoylamino-3-pyrrolidino-1-propanol]
- ratio of cell protein to cellular phospholipid phosphate (11.3 nM): 5.05±0.21 mg protein/nmol phosphate
- ratio of cell protein to cellular phospholipid phosphate (113 nM): 4.84±0.90 mg protein/nmol phosphate
- ratio of cell protein to cellular phospholipid phosphate (1130 nM): 3.97±0.29 mg protein/nmol phosphate

Source: US6916802B2, “Amino ceramide-like compounds and therapeutic methods of use” (Genzyme Corporation, priority 2002, dated 2005)
